From patent US20050059628A1
These are yes or no findings as the source states them, for the method shown. Binding seen in cells or lysates may run through a third protein. Some binding calls cover weakened binding; strength is not graded here.

Chains of the proteins cited; added tags and fusions are not shown. Lines headed by an entry give the natural chain unless they say otherwise; changes in a name come on top. Residues count along the entry.
UniProt P35222, residues 2-781: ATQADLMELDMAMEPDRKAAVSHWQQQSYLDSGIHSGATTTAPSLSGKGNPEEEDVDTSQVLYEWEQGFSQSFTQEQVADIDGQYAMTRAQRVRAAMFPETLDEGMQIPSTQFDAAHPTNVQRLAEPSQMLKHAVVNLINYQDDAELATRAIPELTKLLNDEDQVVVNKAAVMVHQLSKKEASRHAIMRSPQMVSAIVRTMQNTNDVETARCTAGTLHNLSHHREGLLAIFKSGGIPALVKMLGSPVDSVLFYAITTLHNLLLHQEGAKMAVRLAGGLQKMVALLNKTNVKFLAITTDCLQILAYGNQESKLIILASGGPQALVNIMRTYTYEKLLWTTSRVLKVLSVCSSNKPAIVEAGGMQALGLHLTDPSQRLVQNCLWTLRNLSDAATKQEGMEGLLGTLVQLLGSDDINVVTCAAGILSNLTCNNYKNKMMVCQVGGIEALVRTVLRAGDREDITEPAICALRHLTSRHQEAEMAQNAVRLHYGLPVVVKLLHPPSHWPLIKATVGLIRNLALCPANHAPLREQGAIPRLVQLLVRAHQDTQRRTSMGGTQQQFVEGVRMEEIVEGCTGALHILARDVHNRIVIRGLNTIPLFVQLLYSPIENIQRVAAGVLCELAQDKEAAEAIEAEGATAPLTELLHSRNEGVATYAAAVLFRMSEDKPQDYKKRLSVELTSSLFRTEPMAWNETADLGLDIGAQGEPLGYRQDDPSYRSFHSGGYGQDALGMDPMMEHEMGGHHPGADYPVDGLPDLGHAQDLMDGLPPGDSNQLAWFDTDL
CBP (1-351) (P45481, residues 1-351): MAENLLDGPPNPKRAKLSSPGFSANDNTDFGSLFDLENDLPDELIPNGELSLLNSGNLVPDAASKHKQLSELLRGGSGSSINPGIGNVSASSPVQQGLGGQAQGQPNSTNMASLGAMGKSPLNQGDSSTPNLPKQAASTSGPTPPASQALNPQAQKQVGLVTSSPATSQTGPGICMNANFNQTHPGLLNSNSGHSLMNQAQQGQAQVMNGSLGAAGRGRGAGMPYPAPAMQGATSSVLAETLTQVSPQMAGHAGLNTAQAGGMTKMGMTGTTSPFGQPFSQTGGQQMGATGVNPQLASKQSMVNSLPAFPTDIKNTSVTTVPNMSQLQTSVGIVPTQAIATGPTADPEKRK
CBP (1-211) (P45481, residues 1-211): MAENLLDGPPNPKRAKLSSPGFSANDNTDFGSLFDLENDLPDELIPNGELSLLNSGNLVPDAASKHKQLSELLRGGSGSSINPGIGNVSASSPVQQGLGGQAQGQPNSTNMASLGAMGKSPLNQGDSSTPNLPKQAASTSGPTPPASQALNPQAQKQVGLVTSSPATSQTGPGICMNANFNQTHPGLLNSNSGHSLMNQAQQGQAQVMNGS
UniProt Q92793, residues 2-2442: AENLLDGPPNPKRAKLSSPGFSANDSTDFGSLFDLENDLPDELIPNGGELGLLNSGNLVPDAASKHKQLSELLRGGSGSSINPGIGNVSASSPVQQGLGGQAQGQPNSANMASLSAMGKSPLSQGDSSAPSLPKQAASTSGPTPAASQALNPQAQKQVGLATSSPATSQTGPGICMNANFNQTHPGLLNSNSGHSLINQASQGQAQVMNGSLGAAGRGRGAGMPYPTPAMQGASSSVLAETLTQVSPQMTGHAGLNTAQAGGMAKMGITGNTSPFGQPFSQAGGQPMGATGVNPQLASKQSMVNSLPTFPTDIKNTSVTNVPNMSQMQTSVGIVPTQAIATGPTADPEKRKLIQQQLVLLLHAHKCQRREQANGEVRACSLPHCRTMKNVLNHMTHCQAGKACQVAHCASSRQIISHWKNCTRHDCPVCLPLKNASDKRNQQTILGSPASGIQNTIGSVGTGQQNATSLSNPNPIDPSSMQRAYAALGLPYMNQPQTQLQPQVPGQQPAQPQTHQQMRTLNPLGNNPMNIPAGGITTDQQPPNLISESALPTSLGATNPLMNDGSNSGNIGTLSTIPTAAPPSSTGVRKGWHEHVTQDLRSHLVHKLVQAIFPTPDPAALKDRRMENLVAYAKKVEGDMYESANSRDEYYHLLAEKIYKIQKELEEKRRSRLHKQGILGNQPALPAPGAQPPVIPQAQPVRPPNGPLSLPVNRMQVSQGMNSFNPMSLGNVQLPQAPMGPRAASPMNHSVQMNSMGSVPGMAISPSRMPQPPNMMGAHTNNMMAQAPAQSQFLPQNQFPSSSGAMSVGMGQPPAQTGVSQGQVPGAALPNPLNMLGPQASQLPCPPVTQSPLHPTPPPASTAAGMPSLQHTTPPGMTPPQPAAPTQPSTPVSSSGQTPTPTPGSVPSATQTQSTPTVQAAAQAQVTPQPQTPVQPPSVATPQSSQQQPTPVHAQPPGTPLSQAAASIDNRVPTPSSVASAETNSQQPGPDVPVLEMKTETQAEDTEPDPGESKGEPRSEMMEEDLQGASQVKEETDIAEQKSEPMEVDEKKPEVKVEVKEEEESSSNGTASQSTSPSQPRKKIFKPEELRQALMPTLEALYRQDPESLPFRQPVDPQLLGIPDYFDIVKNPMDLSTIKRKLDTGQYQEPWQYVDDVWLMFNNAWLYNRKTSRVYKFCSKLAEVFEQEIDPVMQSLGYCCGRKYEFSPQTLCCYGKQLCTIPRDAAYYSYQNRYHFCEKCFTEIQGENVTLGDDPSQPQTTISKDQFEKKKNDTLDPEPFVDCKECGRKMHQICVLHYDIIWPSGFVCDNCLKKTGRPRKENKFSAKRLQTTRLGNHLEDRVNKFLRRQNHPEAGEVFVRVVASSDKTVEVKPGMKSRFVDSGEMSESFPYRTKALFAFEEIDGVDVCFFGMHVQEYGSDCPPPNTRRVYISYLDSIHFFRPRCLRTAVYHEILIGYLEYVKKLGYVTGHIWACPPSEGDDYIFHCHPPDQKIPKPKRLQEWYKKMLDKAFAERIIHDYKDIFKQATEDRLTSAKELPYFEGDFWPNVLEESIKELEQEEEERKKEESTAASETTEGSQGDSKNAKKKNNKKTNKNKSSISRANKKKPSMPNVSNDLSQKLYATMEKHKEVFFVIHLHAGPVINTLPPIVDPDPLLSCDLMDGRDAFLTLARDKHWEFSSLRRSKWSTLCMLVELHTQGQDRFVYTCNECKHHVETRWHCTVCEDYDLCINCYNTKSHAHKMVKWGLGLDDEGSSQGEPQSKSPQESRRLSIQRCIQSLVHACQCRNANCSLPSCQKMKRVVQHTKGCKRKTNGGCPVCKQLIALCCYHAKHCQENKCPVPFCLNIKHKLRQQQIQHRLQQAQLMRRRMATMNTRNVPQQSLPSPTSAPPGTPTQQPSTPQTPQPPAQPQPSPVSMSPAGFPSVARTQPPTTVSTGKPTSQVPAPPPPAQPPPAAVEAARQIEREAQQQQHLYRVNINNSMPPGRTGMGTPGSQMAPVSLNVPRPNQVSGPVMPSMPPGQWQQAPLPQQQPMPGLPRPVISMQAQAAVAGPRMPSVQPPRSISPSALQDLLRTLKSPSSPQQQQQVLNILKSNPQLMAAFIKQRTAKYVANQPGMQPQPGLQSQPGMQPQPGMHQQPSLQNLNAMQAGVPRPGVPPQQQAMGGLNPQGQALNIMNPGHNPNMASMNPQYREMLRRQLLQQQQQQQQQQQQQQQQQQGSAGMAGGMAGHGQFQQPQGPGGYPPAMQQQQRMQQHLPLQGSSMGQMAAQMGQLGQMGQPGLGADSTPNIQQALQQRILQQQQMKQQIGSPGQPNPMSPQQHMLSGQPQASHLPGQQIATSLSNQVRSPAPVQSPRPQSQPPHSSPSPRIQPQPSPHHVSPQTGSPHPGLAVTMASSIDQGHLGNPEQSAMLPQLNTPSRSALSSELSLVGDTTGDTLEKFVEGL
UniProt Q09472: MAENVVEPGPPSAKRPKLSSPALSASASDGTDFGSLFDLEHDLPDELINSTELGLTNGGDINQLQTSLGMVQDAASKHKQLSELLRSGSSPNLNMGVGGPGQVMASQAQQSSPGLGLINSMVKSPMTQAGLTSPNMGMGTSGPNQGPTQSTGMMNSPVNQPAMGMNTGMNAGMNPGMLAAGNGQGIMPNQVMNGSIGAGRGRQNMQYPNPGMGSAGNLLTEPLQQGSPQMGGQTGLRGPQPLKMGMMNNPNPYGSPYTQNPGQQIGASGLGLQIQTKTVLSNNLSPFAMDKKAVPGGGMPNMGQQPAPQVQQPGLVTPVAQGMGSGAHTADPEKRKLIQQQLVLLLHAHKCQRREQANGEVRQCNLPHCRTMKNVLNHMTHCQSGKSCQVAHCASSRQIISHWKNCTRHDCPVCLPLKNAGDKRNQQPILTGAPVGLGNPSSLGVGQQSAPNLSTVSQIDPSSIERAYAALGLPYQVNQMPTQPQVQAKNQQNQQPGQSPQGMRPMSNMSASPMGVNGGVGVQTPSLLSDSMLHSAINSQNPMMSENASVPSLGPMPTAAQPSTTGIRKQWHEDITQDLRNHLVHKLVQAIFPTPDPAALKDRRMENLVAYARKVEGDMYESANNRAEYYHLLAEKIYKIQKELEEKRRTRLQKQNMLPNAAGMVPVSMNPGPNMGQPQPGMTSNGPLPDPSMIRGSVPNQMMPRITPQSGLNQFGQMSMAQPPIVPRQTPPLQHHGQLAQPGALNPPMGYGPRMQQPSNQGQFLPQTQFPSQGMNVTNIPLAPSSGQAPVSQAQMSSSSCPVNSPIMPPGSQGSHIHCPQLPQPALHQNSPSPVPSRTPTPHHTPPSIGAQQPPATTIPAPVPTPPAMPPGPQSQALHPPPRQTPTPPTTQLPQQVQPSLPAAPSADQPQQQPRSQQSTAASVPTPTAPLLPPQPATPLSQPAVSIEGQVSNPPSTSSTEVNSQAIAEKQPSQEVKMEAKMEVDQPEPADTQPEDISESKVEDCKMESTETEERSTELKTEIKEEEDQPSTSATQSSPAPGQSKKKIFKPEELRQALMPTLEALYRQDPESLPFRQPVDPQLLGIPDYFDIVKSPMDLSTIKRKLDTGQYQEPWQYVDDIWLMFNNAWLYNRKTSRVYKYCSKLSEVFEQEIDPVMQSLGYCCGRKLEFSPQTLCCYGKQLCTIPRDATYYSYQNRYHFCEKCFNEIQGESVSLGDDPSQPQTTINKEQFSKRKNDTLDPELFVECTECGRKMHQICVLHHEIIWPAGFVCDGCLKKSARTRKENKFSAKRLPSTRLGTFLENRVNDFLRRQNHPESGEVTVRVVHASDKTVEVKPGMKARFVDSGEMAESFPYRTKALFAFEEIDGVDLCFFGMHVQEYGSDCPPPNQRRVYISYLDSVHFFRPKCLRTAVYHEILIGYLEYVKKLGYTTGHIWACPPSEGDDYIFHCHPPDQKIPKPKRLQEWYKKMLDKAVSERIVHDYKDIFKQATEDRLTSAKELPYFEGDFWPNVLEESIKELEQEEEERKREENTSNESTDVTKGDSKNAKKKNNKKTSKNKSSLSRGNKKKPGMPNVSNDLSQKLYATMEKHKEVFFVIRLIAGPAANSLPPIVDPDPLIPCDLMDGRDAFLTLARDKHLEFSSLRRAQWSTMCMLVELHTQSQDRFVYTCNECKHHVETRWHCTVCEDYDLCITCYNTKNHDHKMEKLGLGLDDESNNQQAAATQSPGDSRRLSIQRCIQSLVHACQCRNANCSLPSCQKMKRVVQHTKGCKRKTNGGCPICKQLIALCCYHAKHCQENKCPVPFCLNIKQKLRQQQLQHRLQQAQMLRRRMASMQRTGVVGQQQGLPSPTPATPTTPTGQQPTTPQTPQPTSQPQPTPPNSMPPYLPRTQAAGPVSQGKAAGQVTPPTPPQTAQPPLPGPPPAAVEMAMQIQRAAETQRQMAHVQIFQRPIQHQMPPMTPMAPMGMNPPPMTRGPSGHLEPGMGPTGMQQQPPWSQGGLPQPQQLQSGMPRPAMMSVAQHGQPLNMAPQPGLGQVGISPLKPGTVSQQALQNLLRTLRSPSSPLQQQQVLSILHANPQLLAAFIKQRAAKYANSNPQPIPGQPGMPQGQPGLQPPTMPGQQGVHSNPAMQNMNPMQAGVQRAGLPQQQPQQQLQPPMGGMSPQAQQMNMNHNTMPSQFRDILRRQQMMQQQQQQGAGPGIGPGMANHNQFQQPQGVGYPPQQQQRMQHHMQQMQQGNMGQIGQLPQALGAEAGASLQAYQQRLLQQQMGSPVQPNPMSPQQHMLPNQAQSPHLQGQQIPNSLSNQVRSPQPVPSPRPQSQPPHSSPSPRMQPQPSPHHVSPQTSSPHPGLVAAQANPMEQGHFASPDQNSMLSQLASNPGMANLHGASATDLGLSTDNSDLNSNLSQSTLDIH

Columns and labels:
[1] = target: full-length endogenous β-catenin (SW480 cells) (human (endogenous in human SW480 cells)) (UniProt P35222); test: co-immunoprecipitation of deletion constructs with anti-β-catenin antibody
[2] = target: full-length endogenous β-catenin (SW480 cells) (human (endogenous in human SW480 cells)) (UniProt P35222); test: co-immunoprecipitation from transfected SW480 cells, challenged with COMPOUND 1
[3] = target: full-length endogenous β-catenin (SW480 cells) (human (endogenous in human SW480 cells)) (UniProt P35222); test: co-immunoprecipitation from transfected SW480 lysates with anti-β-catenin antibody, immunoblot with anti-His
[4] = target: full-length endogenous β-catenin (SW480 cells) (human (endogenous in human SW480 cells)) (UniProt P35222); test: co-immunoprecipitation of CBP deletion series with anti-β-catenin antibody, immunoblot with anti-His (FIG. 3C)
[5] = target: full-length endogenous β-catenin (SW480 cells) (human (endogenous in human SW480 cells)) (UniProt P35222); test: co-immunoprecipitation in SW480 cells
[6] = target: full-length endogenous β-catenin (SW480 cells) (human (endogenous in human SW480 cells)) (UniProt P35222); test: co-immunoprecipitation from SW480 lysates with anti-CBP antibody, immunoblot with anti-β-catenin
[7] = target: full-length endogenous β-catenin (SW480 cells) (human (endogenous in human SW480 cells)) (UniProt P35222); test: co-immunoprecipitation from SW480 lysates with anti-CBP antibody, immunoblot with anti-β-catenin (FIG. 3B)
[8] = target: full-length endogenous β-catenin (SW480 cells) (human (endogenous in human SW480 cells)) (UniProt P35222); test: co-immunoprecipitation from SW480 lysates with anti-p300 antibody, immunoblot with anti-β-catenin
[9] = target: full-length endogenous β-catenin (SW480 cells) (human (endogenous in human SW480 cells)) (UniProt P35222); test: co-immunoprecipitation from SW480 lysates with anti-p300 antibody, immunoblot with anti-β-catenin (FIG. 3B)

## CBP (1-111) (from UniProt P45481 1-108)
[1]
  binding: binds
[2]
  binding: binds
[3]
  binding: binds
[4]
  binding: binds

## CBP (1-211) (from UniProt P45481 1-211)
[3]
  binding: binds

## CBP (1-351) (from UniProt P45481 1-351)
[3]
  binding: binds

## CREB-binding protein (CBP), endogenous in SW480 cells (from UniProt Q92793 2-2442)
[5]
  binding: binds
[6]
  binding: binds
[7]
  binding: binds

## p300 (1-111) (from UniProt Q09472 1-111)
[1]
  binding: binds
[2]
  binding: binds
[3]
  binding: binds

## p300 (1-211) (from UniProt Q09472 1-211)
[3]
  binding: binds

## p300 (1-351) (from UniProt Q09472 1-351)
[3]
  binding: binds

## p300, endogenous in SW480 cells (from UniProt Q09472 2-2414)
[5]
  binding: binds
[8]
  binding: binds
[9]
  binding: binds
